# US20090162369A1, “SYNTHETIC CHIMERIC PEPTIDES” (priority 2007, published 2009)
# Some results were stated once for a whole list of compounds, not compound by compound.
# Test system: Quackenbush mice
# Assay: Peptide specific IgG titres in murine antisera raised to TN peptides
# Format: in vivo
# Details: 30 μg peptide in complete Freund's adjuvant s.c., boosts in PBS, FIG. 2
row,Sequence,peptide specific IgG titres in murine sera
1,LRRDLDASNEAKNQVEKALEC [TN peptide 12],> 100000
2,LRRDLDAVREAKKQVEMALEC [TN peptide 11],> 100000
3,LRRDLDAVREAKNQVEKALEC [TN peptide 9],> 500000
4,LRRDLDAVREAKKQVERALEC [TN peptide 10],> 100000
5,LRRDLDAENEAKKQVEKALEC [TN peptide 2],> 100000
